Experimental data: PubChem BioAssay AID602196 (INSERM, 2012)
Purpose: 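Modifiers of cisplatin sensitivity in A549 cells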. Cell system: human A549 lung cancer cells. Knock-down reagent: siRNA pair against human genes. Duration: 48 h transfection before cisplatin; time from cisplatin to read-out not stated. Conditions: cisplatin at a dose killing half of control-siRNA cells; exact dose and duration not given. Measurement: 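Shift in cisplatin death relative to control siRNA, from -50 (all cells die) to +50 (no cells die); siRNAs harmful on their own scored 0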. Reading the numbers: two-siRNA summed score (-2 to +2): higher = both siRNAs protect from cisplatin killing; -2 means both sensitise. Active means: 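Each siRNA scores 0 if harmful alone by LDH or WST-1, otherwise +1 if it reduces and -1 if it increases cisplatin killing; a gene is active when both siRNAs agree (sum +2 or -2)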. Meaning of the calls: active = both siRNAs shift cisplatin killing the same way; inactive = no consistent shift, or siRNA harmful alone.
Here is an unselected part of about 23,000 reagents tested. Over the whole deposit, 455 (2%) were called active. 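Active includes both protection and sensitisation; some change values fall well beyond the stated -50 to +50 range.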 Reagents against one gene are numbered here. Further read-outs or replicates are left out here. Not given: the amount of reagent.

two-siRNA summed score (-2 to +2), by gene symbol and reagent
KLHDC7B: #1 -1 inactive
MRPS22: #1 0 inactive
REL: #1 -1 inactive
ZNF800: #1 0 inactive
LOC440258: #1 0 inactive
PGM1: #1 0 inactive
MBOAT1: #1 0 inactive
LOC440042: #1 1 inactive
GALR1: #1 -1 inactive
NECTIN4: #1 0 inactive
SLC24A2: #1 0 inactive
IFT25: #1 0 inactive
FOXQ1: #1 0 inactive
EXOC1: #1 0 inactive
GRID1: #1 0 inactive
GPRIN2: #1 1 inactive
SSB: #1 0 inactive
SHISA5: #1 0 inactive
LOC391142: #1 0 inactive
LOC388480: #1 0 inactive
IFT80: #1 0 inactive
FPR3: #1 1 inactive
LOC388624: #1 0 inactive
MTX2: #1 1 inactive
KRT6C: #1 0 inactive; #2 0 inactive
IL17F: #1 0 inactive
APOLTP: #1 0 inactive
LOC388681: #1 0 inactive
GNPAT: #1 0 inactive
TERF1: #1 0 inactive
LOC440495: #1 1 inactive
SLC24A4: #1 0 inactive
DENND5B: #1 0 inactive
ACTL11P: #1 0 inactive
MAST1: #1 0 inactive
LINC00636: #1 1 inactive
LOC441816: #1 0 inactive

Copied from the entries so far for reference:
two-siRNA summed score (-2 to +2), by gene symbol and reagent
LOC440042: #1 1 inactive
GALR1: #1 -1 inactive
NECTIN4: #1 0 inactive
SLC24A2: #1 0 inactive

Continued.
two-siRNA summed score (-2 to +2), by gene symbol and reagent
LOC440923: #1 0 inactive
LOC401957: #1 0 inactive
TERB1: #1 0 inactive
SMARCA5: #1 1 inactive
UBA3: #1 -1 inactive
VN1R4: #1 0 inactive
CDH24: #1 0 inactive
TSPAN32: #1 0 inactive
TEX30: #1 0 inactive
ZNF821: #1 0 inactive
REG3A: #1 0 inactive
VNN1: #1 0 inactive
LOC390183: #1 1 inactive
POLR2G: #1 -1 inactive
LOC400577: #1 0 inactive
IGFN1: #1 0 inactive
ALG5: #1 0 inactive
LOC338611: #1 1 inactive
ZCCHC3: #1 0 inactive
